The target in the assay is T1, THY-1 cell surface antigen (CD90), endogenous in MRC-5 cells (human (endogenous in MRC-5)) (UniProt P04216).
T1 sequence (chain, C-terminal a.a. 132-162 replaced with a GPI anchor): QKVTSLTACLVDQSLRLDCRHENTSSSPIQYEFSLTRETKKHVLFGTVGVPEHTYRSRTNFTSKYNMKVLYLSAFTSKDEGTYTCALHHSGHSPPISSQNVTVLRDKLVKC
The assay is described as follows: affinity purification with mass spectrometry; anti-THY-1 antibody and protein A-Sepharose, 4°C overnight, on lysates of MRC-5 cells infected with HCMV Towne (25 mM Tris, 15 mM NaCl, 0.1% NP40 with or without 5 mM EDTA); bands absent with isotype control antibody and in uninfected cells were excised from SDS-PAGE and identified by mass spectrometry.

Protein sequences, listed by entry. Tags and fused reporters are not part of them. Residues count along the entry.
UniProt P13201, residues 23-907: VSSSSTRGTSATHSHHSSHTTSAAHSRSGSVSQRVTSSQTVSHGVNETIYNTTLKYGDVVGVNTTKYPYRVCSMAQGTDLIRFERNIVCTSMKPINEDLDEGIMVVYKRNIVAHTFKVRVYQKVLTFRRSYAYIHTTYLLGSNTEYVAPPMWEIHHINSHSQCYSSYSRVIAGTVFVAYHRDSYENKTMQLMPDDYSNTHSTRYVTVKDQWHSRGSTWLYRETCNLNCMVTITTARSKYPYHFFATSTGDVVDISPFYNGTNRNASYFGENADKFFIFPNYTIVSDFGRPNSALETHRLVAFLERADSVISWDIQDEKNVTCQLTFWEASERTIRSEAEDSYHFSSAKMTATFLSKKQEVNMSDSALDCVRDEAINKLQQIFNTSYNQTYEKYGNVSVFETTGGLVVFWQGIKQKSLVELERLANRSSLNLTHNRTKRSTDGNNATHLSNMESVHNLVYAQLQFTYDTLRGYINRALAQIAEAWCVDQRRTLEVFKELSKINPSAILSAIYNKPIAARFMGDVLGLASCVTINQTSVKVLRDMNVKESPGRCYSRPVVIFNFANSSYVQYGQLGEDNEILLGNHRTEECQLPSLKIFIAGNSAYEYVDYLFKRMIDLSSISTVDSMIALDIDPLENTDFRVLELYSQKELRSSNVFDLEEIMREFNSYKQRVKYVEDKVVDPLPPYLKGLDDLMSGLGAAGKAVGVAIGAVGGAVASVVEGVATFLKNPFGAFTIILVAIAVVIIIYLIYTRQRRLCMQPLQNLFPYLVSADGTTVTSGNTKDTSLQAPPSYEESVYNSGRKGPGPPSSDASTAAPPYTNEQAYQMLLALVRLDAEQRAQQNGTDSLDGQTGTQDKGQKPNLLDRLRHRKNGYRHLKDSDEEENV
UniProt P17176, residues 30-742: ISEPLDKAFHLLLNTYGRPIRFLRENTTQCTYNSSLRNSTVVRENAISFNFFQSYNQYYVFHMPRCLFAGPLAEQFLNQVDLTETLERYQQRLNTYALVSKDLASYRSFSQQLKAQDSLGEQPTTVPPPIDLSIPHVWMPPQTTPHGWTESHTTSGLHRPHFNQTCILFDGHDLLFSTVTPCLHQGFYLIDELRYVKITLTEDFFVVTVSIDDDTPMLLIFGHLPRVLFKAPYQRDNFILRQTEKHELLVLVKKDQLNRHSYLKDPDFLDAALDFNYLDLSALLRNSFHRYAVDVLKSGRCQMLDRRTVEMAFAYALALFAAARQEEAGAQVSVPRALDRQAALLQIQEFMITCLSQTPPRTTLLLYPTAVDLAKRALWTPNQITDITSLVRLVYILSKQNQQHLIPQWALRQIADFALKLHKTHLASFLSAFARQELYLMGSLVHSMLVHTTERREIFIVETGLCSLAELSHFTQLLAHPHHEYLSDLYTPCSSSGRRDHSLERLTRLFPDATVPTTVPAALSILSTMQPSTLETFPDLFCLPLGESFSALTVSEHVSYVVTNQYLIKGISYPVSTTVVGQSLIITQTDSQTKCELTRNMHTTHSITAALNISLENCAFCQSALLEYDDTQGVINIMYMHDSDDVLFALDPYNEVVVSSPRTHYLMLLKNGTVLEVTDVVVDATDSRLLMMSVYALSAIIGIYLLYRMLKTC

These are yes or no findings as the source states them, for the method shown. Binding seen in cells or lysates may run through a third protein. A yes stands for co-enrichment or nearness to the bait. Other partners may have been found.

Take “HCMV glycoprotein B (gB), from MRC-5 cells infected with HCMV Towne (from UniProt P13201 23-907)”: the binding entry is “binds”.

With “HCMV glycoprotein H (gH), from MRC-5 cells infected with HCMV Towne (from UniProt P17176 30-742)”, the binding entry is reported as “binds”.

Source of the values: PMC4492587.
